Source: paper PMC5201024

Protein sequences, listed by entry. Tags and fused reporters are not part of them. Lines headed by an entry give the natural chain unless they say otherwise; changes in a name come on top.
UniProt P63151: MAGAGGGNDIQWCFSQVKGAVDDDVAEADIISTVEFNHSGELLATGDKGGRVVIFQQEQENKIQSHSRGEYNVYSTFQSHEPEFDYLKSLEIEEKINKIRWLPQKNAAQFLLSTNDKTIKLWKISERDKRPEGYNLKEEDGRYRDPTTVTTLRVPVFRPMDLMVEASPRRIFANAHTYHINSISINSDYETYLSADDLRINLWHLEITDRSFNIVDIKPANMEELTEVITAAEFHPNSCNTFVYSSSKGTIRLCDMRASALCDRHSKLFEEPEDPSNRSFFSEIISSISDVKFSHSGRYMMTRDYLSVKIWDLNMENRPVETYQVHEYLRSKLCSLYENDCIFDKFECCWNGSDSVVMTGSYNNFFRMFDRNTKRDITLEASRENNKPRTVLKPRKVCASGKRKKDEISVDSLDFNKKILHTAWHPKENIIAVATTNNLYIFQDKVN
UniProt P61586: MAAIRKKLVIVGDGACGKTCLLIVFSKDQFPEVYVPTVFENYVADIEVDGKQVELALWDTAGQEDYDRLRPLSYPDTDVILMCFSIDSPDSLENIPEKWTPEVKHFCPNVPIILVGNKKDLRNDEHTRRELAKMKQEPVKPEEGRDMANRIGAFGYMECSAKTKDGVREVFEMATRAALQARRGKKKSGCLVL
UniProt P62745: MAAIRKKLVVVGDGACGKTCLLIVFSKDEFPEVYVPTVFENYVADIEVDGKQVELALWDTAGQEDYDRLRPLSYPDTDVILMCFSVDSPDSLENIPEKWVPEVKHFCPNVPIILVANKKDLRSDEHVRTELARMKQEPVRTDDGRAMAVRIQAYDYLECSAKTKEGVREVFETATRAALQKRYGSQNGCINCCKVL
UniProt P08134: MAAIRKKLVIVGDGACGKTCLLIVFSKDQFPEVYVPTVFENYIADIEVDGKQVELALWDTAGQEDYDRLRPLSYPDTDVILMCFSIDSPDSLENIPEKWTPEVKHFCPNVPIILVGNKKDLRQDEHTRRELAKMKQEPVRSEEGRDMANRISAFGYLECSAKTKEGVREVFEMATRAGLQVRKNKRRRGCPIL
UniProt P62258: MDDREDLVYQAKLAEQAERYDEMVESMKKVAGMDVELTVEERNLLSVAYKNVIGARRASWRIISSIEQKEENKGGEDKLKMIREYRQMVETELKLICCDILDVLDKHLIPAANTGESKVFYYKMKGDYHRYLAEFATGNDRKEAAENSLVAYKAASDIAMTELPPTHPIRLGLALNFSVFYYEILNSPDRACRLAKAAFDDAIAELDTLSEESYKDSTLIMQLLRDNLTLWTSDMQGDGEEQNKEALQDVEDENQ
UniProt P67775: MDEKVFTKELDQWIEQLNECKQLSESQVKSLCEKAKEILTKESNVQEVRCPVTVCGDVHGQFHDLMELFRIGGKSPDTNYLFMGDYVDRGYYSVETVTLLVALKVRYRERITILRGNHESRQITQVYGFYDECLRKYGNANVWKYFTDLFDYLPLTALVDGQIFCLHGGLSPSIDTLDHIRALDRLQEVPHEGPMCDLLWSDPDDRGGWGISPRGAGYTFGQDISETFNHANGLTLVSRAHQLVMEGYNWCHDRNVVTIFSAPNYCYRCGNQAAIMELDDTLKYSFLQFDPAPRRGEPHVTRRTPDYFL
UniProt Q9BUL8: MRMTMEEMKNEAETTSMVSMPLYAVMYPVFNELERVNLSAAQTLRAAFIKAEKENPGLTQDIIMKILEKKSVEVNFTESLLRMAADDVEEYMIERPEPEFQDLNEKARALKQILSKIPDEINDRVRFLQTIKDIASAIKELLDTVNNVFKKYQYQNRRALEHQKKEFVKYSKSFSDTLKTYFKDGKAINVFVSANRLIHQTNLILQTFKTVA

B1: FAM65A (endogenous) (protein, UniProt Q6ZS17 1-1223)
chain: MMSLSVRPQRRLLSARVNRSQSFAGVLGSHERGPSLSFRSFPVFSPPGPPRKPPALSRVSRMFSVAHPAAKVPQPERLDLVYTALKRGLTAYLEVHQQEQEKLQGQIRESKRNSRLGFLYDLDKQVKSIERFLRRLEFHASKIDELYEAYCVQRRLRDGAYNMVRAYTTGSPGSREARDSLAEATRGHREYTESMCLLESELEAQLGEFHLRMKGLAGFARLCVGDQYEICMKYGRQRWKLRGRIEGSGKQVWDSEETIFLPLLTEFLSIKVTELKGLANHVVVGSVSCETKDLFAALPQVVAVDINDLGTIKLSLEVTWSPFDKDDQPSAASSVNKASTVTKRFSTYSQSPPDTPSLREQAFYNMLRRQEELENGTAWSLSSESSDDSSSPQLSGTARHSPAPRPLVQQPEPLPIQVAFRRPETPSSGPLDEEGAVAPVLANGHAPYSRTLSHISEASVDAALAEASVEAVGPESLAWGPSPPTHPAPTHGEHPSPVPPALDPGHSATSSTLGTTGSVPTSTDPAPSAHLDSVHKSTDSGPSELPGPTHTTTGSTYSAITTTHSAPSPLTHTTTGSTHKPIISTLTTTGPTLNIIGPVQTTTSPTHTMPSPTHTTASPTHTSTSPTHTPTSPTHKTSMSPPTTTSPTPSGMGLVQTATSPTHPTTSPTHPTTSPILINVSPSTSLELATLSSPSKHSDPTLPGTDSLPCSPPVSNSYTQADPMAPRTPHPSPAHSSRKPLTSPAPDPSESTVQSLSPTPSPPTPAPQHSDLCLAMAVQTPVPTAAGGSGDRSLEEALGALMAALDDYRGQFPELQGLEQEVTRLESLLMQRQGLTRSRASSLSITVEHALESFSFLNEDEDEDNDVPGDRPPSSPEAGAEDSIDSPSARPLSTGCPALDAALVRHLYHCSRLLLKLGTFGPLRCQEAWALERLLREARVLEAVCEFSRRWEIPASSAQEVVQFSASRPGFLTFWDQCTERLSCFLCPVERVLLTFCNQYGARLSLRQPGLAEAVCVKFLEDALGQKLPRRPQPGPGEQLTVFQFWSFVETLDSPTMEAYVTETAEEVLLVRNLNSDDQAVVLKALRLAPEGRLRRDGLRALSSLLVHGNNKVMAAVSTQLRSLSLGPTFRERALLCFLDQLEDEDVQTRVAGCLALGCIKAPEGIEPLVYLCQTDTEAVREAARQSLQQCGEEGQSAHRRLEESLDALPRIFGPGSMASTAF

target: T1, GFP-tagged full-length FAM65A (human) (UniProt Q6ZS17); assay: affinity purification with mass spectrometry; anti-GFP immunoprecipitation from SILAC-labelled HeLa cells overexpressing GFP–FAM65A versus GFP-only, FASP digestion, LC-MS/MS
T1 sequence: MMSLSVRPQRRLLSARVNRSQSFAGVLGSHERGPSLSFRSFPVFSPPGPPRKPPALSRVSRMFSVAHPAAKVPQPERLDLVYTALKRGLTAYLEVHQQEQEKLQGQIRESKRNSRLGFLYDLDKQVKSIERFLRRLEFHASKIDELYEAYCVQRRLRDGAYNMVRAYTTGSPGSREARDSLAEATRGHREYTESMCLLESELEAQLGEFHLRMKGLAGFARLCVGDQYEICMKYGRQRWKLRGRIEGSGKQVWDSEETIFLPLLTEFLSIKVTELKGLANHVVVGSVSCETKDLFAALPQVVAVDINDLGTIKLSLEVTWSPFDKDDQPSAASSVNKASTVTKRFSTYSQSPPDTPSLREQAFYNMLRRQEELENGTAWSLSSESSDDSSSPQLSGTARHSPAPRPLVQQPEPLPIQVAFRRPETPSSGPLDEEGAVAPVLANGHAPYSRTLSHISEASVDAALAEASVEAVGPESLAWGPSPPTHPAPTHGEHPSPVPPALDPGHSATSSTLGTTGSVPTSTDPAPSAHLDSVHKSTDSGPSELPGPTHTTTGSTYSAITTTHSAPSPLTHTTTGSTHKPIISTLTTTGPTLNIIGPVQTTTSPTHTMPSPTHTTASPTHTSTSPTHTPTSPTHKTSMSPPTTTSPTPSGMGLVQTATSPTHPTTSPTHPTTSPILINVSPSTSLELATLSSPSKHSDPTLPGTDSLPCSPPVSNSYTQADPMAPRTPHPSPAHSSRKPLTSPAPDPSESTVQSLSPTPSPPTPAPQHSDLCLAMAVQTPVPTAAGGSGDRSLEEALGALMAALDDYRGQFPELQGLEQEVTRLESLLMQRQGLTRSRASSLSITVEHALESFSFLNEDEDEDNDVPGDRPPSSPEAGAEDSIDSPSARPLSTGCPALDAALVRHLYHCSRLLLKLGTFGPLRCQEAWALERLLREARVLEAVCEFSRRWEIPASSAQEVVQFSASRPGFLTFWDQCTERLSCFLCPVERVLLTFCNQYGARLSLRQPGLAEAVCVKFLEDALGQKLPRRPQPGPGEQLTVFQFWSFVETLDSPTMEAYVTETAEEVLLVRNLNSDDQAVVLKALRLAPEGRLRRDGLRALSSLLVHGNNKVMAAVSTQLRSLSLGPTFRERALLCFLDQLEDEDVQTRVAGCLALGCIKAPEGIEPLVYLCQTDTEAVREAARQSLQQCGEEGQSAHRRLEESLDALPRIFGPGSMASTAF

binding, binds:
PP2A regulatory subunit PPP2R2A (endogenous) (from UniProt P63151 1-447)
RHOA (endogenous) (from UniProt P61586 1-193)
RHOB (endogenous) (from UniProt P62745 1-196)
RHOC (endogenous) (from UniProt P08134 1-193)
YWHAE (endogenous) (from UniProt P62258 1-255)
catalytic PP2A subunit (endogenous) (from UniProt P67775) (enzyme)
cerebral cavernous malformation-3 protein (CCM3), endogenous (from UniProt Q9BUL8 1-212)
scaffolding PP2A subunit (endogenous) (human (endogenous in HeLa))

target: GTP-bound GST–RHOA (UniProt P61586); assay: affinity purification with mass spectrometry; purified GTP-bound GST–RHOA (or GST only) immobilised on glutathione–Sepharose beads, SILAC-labelled HeLa lysates, 1 h at 4°C, 50 mM Tris-HCl pH 7.5, 150 mM NaCl, 1% NP-40, 10 mM MgCl2; only the target purified

binding, binds:
B1

These are yes or no findings as the source states them, for the method shown. In cells and extracts the contact can be indirect. A yes stands for co-enrichment or nearness to the bait. Other partners may have been found. For part of these data: Where a sequence is shown, tags or fusion partners need not be part of it.
